From ChEMBL document CHEMBL1914304 (J Med Chem, 2011)

By UniProt entry, the sequences of proteins in these tests, tags left out.
UniProt Q13936, whole entry: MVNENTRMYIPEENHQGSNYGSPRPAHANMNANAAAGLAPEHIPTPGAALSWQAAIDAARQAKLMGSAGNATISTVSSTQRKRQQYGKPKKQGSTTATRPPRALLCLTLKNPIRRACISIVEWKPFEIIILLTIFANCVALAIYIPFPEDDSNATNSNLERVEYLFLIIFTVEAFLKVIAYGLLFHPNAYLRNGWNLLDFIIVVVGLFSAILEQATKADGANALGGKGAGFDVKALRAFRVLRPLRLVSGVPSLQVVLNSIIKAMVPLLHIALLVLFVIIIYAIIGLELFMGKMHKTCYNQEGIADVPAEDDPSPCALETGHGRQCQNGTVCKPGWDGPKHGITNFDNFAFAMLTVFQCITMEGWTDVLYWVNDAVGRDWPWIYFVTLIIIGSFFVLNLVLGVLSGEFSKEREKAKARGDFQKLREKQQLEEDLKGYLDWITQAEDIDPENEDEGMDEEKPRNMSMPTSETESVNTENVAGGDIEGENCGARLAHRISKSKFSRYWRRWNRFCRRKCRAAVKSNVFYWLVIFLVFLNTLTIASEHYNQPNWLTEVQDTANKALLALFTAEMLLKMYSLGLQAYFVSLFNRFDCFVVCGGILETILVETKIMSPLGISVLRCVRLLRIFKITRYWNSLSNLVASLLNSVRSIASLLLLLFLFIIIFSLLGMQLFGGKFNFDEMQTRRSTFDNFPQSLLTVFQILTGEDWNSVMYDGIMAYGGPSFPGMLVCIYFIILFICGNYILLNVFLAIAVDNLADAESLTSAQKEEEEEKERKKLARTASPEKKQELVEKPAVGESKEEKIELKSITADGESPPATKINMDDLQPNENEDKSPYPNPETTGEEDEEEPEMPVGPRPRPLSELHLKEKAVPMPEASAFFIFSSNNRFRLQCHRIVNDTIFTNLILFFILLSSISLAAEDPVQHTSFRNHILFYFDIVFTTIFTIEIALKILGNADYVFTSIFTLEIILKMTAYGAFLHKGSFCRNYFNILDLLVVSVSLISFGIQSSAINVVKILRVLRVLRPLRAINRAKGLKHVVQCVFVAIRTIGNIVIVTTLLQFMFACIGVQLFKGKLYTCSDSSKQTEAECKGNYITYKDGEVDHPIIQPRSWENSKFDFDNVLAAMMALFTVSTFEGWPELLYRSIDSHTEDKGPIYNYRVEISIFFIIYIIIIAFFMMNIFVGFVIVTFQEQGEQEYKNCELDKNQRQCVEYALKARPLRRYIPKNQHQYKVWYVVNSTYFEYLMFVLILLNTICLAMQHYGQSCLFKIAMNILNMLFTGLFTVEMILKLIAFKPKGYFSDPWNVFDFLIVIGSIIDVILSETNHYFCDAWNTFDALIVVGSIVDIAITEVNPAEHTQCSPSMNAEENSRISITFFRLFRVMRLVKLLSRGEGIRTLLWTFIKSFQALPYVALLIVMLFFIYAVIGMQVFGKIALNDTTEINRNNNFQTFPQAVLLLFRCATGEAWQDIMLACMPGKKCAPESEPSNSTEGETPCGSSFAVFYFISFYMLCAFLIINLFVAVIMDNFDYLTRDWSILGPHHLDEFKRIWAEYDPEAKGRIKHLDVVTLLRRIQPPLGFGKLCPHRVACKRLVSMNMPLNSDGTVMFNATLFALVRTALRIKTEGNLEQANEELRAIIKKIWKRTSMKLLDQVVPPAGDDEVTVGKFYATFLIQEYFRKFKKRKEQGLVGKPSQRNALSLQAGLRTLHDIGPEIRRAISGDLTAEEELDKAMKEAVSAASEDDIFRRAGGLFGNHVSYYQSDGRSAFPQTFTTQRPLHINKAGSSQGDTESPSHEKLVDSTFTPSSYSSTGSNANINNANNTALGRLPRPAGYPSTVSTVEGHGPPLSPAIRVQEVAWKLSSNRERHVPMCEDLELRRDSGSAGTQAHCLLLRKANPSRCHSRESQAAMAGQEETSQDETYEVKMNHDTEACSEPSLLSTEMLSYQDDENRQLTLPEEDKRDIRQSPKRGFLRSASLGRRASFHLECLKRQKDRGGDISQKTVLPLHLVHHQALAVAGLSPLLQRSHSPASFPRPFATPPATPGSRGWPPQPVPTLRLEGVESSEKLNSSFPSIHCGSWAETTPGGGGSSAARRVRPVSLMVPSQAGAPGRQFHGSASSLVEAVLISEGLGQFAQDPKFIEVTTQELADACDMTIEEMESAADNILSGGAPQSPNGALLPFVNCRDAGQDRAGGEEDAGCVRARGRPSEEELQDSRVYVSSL

Target: Cav1.2 (Homo sapiens, UniProt Q13936)
Test: in vitro

`CCCNCC(O)COc1ccccc1C(=O)CCc1ccccc1` (racemic) [PROPAFENONE] gave an inhibition at 5 min, 10 µM of 72.5%.
